Results deposited as PubChem BioAssay AID1259254 (NCATS, 2017)
This is one part, drawn at random, of about 59,000 deposited reagents. About 1,550 of all reagents (2.6%) were called active. 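G2 share is only a proxy for re-replication; each gene was hit by three separate siRNAs, and active genes were retested.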 Raw values are not corrected between plates. Reagents against one gene are numbered here. Not given: the amount of reagent.

- Screen: 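Finding genes that stop cells copying their DNA twice in one cycle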 (primary screen)
- System: human HCT116 colorectal cancer cells
- Reagents: single siRNA against human genes
- Timing: 3 days
- Detection: 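Nuclei stained with Hoechst and imaged; cell-cycle phase assigned by DNA content; G2 share scaled per plate, non-targeting siRNA 0%, GMNN siRNA 100%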
- Reading the numbers: G2 robust z-score and G2 cells, % of GMNN control: higher = more G2 cells, more excess DNA replication; raw share of cells in G2: higher = larger share of cells with G2 DNA content
- Active means: 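An siRNA counts as active if its G2 robust z-score lies at least 5 MADs above the screen median; here such calls match roughly 38% of GMNN control or more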

| gene symbol | reagent | G2 robust z-score | G2 cells, % of GMNN control | raw share of cells in G2 (%) | Call |
| --- | --- | --- | --- | --- | --- |
| RFX5 | 1 | -0.97 | -3.86 | 3.65 | inactive |
| RFX5 | 2 | 1.97 | 16.8 | 11.1 | inactive |
| RFX5 | 3 | -0.389 | 0.229 | 4.22 | inactive |
| TMEM128 | 1 | -0.265 | 1.11 | 3.28 | inactive |
| TMEM128 | 2 | 0.877 | 9.14 | 7.96 | inactive |
| TMEM128 | 3 | 3.07 | 24.6 | 10.7 | inactive |
| KCNH1 | 1 | 3.07 | 24.6 | 14.2 | inactive |
| KCNH1 | 2 | -0.611 | -1.33 | 4.33 | inactive |
| KCNH1 | 3 | 0.54 | 6.77 | 7.02 | inactive |
| MUC17 | 1 | 3.02 | 24.2 | 13.3 | inactive |
| MUC17 | 2 | 0.827 | 8.78 | 5.89 | inactive |
| MUC17 | 3 | 0.636 | 7.44 | 5.28 | inactive |
| FABP12 | 1 | 4.64 | 35.6 | 17.2 | inactive |
| FABP12 | 2 | 0.501 | 6.49 | 5.63 | inactive |
| FABP12 | 3 | -1.1 | -4.77 | 1.53 | inactive |
| WT1 | 1 | -0.46 | -0.267 | 5.49 | inactive |
| WT1 | 2 | -1.3 | -6.2 | 2.44 | inactive |
| WT1 | 3 | -0.5 | -0.549 | 4.06 | inactive |
| BRD7 | 1 | 0.194 | 4.33 | 4.62 | inactive |
| BRD7 | 2 | 0.0633 | 3.41 | 5.16 | inactive |
| BRD7 | 3 | -0.131 | 2.05 | 5.32 | inactive |
| PPP1R3B | 1 | 3.48 | 27.4 | 13.7 | inactive |
| PPP1R3B | 2 | -0.499 | -0.544 | 4.14 | inactive |
| PPP1R3B | 3 | -0.474 | -0.368 | 3.39 | inactive |
| TP53I11 | 1 | 5.19 | 39.5 | 23.2 | active |
| TP53I11 | 2 | 1.44 | 13.1 | 9.42 | inactive |
| TP53I11 | 3 | -0.114 | 2.16 | 4.19 | inactive |
| APOF | 1 | 0.849 | 8.94 | 7.76 | inactive |
| APOF | 2 | 0.0222 | 3.12 | 6.18 | inactive |
| APOF | 3 | -0.905 | -3.4 | 2.72 | inactive |

Only “raw share of cells in G2 (%)”, for 5 of the entries above:
MUC17 #2 = 5.89
MUC17 #3 = 5.28
FABP12 #1 = 17.2
FABP12 #2 = 5.63
FABP12 #3 = 1.53
